Source: patent publication US20060030585A1, “Tricyclic delta-opioid modulators” (priority 2004, published 2006)

Protein sequences, listed by entry. Tags and fused reporters are not part of them.
UniProt P33535, whole entry: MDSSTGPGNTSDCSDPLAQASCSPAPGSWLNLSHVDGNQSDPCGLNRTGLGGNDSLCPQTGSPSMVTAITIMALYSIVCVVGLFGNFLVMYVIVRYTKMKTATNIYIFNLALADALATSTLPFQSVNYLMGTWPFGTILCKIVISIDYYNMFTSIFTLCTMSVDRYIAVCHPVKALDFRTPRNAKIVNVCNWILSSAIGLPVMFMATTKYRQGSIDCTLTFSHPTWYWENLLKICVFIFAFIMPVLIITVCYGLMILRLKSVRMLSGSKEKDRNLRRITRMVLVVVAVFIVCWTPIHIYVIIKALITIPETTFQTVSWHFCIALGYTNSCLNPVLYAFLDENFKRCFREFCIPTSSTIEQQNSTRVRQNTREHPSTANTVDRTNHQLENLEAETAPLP

Biological target: mu opioid receptor (Rattus norvegicus, UniProt P33535)
Experiment: Rat brain mu opioid receptor binding assay ([3H]DAMGO)
Conditions: read-out: MOR Ki; Rat mu opioid receptor binding constant; rat forebrain membranes, ~0.8 nM [3H]DAMGO

**Q.** `Oc1cccc2c1Oc1cc(-c3nnn[nH]3)ccc1C2=C1CC2CCC(C1)N2` [Cpd 90] was tested. Which Ki did it give?
**A.** 0.7 nM and 6 nM

**Q.** Which Ki does the source give for `c1ccc2c(c1)Oc1cc(-c3nnn[nH]3)ccc1C2=C1CC2CCC(C1)N2` (single isomer, unassigned) here?
**A.** 7.52 µM and 2.57 µM

Some entries of the source have several records that differ or are many. This is not the full list of results. The source may hold further records. The values listed for one entry differ for a reason that is not stated; some may be repeats, others may stem from another dose, organism or construct than stated.
